Reference: PubChem BioAssay AID1487 (National Center for Advancing Translational Sciences (NCATS), 2009)
Some of the results follow. These are further read-outs of the screen, such as a control signal, another cell line or another target. No call is given for them. Most of these compounds were active or inconclusive in the main read-out, so they are no random draw. The note in brackets gives the kind of curve behind each potency; many fits are weak.

Assay: qHTS Assay for Modulators of Lamin A Splicing
Conditions: HeLa LMNA splicing GFP/RFP minigene ratio, 48 h
In short: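 Read-out is the ratio of GFP to DsRed2 object intensity, acquired by 488 nm laser-scanning cytometry on HeLa lamin A-EGFP minigene reporter cells. Compound incubation 48 hrs at 37 °C in Opti-MEM with 2% FBS; DMSO 0.5% final.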

[1] = measured here: RFP viability control channel
[2] = measured here: GFP splicing reporter channel

Structure (SMILES) | AC50 [1] | AC50 [2]
COC(=O)c1cc2ccsc2n1Cc1ccccc1F | 0.00355 µM [falling, full curve, poor fit] | –
O=C(NC(=S)Nc1ccc(NC(=O)c2cccs2)cc1)c1ccco1 | 15.8 µM [rising, partial curve, poor fit] | –
Cc1nn(-c2ccccc2)c(N2CCCC2)c1/C=N/NC(=O)c1cc(-c2ccccc2)nc2ccccc12 | 10 µM [rising, partial curve, poor fit] | –
O=S(=O)(NCc1ccc(F)cc1)c1ccc2[nH]c3c(c2c1)CCCC3 | 12.6 µM [falling, partial curve] | 22.4 µM [falling, partial curve]
Cc1cc(/C=C(\C#N)C(N)=O)c(C)n1-c1ccc(N2CCOCC2)c([N+](=O)[O-])c1 | 7.94 µM [falling, partial curve] | 12.6 µM [falling, partial curve]
COc1ccc(NC(=O)C2Cc3ccccc3CN2S(=O)(=O)c2ccccc2)cc1OC (stereo not drawn) | 35.5 µM [rising, single point] | 25.1 µM [rising, partial curve, poor fit]
COc1cc(C(=O)N2CCN(c3cccc(C)c3C)CC2)cc(OC)c1OC | 11.2 µM [rising, partial curve] | –
C/C(=N/Nc1nc(-c2ccccc2)cc(-c2ccccc2)n1)c1ccc(N)cc1 | 14.1 µM [rising, single point] | –
CCc1ccccc1NC(=O)CCCn1c(=O)c2cccn2c2ccccc21 | 35.5 µM [rising, single point] | 15.8 µM [rising, partial curve, poor fit]
CCOC(=O)c1[nH]c2ccc(Br)cc2c1NC(=O)CCN1CCN(C(=O)OCC)CC1 | 11.2 µM [rising, partial curve] | 6.31 µM [rising, partial curve, poor fit]
CCOC(=O)N/N=C/C=C/c1ccccc1 | 0.0631 µM [rising, full curve, poor fit] | –
COc1ccc(-c2nn(-c3ccccc3)cc2C(=O)Nc2nccs2)cc1OC | 35.5 µM [rising, single point] | –
CSc1nsc(SC)c1C(=O)Nc1ccc(Cl)cc1 | 0.00282 µM [falling, full curve, poor fit] | –
Cc1cc(C(=O)OCC(=O)N2CC(=O)Nc3ccccc32)c(C)n1-c1ccc(F)cc1 | 12.6 µM [rising, partial curve] | –
CN(C)c1nc(N)nc(CSc2nnnn2-c2cccc3ccccc23)n1 | 2.51 µM [rising, full curve] | –
O=C(CCCn1cnc([N+](=O)[O-])n1)Nc1cccc(Cl)c1Cl | 7.08 µM [rising, full curve, poor fit] | –
COc1c2occc2c(OC)c2c(=O)cc(C)oc12 | – | 0.00282 µM [rising, full curve, poor fit]
CNc1ncnc2ccc(-c3ccccc3OC)cc12 | 25.1 µM [falling, single point] | 25.1 µM [falling, single point]

Quoted from the listing:
In AC50 [1], O=C(NC(=S)Nc1ccc(NC(=O)c2cccs2)cc1)c1ccco1 has the entry 15.8 µM [rising, partial curve, poor fit]
In AC50 [2], CCOC(=O)c1[nH]c2ccc(Br)cc2c1NC(=O)CCN1CCN(C(=O)OCC)CC1 has the entry 6.31 µM [rising, partial curve, poor fit]

Going on with the list:

Structure (SMILES) | AC50 [1] | AC50 [2]
COc1ccc2[nH]cc(CCNc3ccnc(-c4ccoc4)n3)c2c1 | – | 12.6 µM [falling, single point]
CN(C)c1ccc(P(=O)(CC(=O)N/N=C/c2ccc(C#N)cc2)OCCCl)cc1 (stereo not drawn) | – | 0.316 µM [rising, full curve, poor fit]
CCCCOC(=O)Cn1c(=O)c2c(nc3n2CCCCN3c2ccc(C)cc2)n(C)c1=O | 14.1 µM [rising, partial curve] | –
Brc1ccc(OCCOc2cccc3cccnc23)cc1 | 0.00447 µM [rising, full curve, poor fit] | –
Cc1ccc(Cl)cc1NC(=O)Cn1c(SCC(=O)NCc2ccccc2)nc2ccccc21 | 35.5 µM [falling, single point] | –
O=C(CN(Cc1ccco1)C(=O)Cn1nnc(-c2ccc(F)cc2)n1)NC1CCCC1 | 28.2 µM [rising, single point] | 0.316 µM [rising, partial curve]
CC1(C)CC(=O)c2sc(NC(=O)CCS(=O)(=O)c3ccccc3)nc2C1 | – | 17.8 µM [falling, partial curve]
CC(=O)Nc1ccc(S(=O)(=O)NCC(=O)OCc2cc(=O)oc3ccc4ccccc4c23)cc1 | 14.1 µM [rising, single point] | 12.6 µM [rising, partial curve, poor fit]
CC(=O)c1ccc(C(=O)N(CCN(C)C)c2nc3c(Cl)cccc3s2)cc1 | 0.158 µM [rising, full curve] | 0.316 µM [rising, partial curve]
COCCNC(=S)N/N=C/c1ccc(N2CCOCC2)cc1 | 35.5 µM [rising, single point] | –
COc1ccc(CNc2nc3c(c(=O)[nH]c(=O)n3C)n2CCCc2ccccc2)cc1 | 35.5 µM [rising, single point] | –
Cc1cc(C)nc(N2CCCC(C(=O)Nc3nc4ccc(S(C)(=O)=O)cc4s3)C2)n1 (stereo not drawn) | 31.6 µM [rising, single point] | –
S=C(NCCSCc1c(Cl)cccc1Cl)Nc1ccccc1 | 35.5 µM [falling, single point] | 35.5 µM [falling, single point]
CCOC(=O)c1ccc(NC(=S)N(CCCN2CCCC(C)C2)Cc2cccs2)cc1 (stereo not drawn) | – | 14.1 µM [falling, partial curve, poor fit]
COc1ccccc1NC(=S)NCc1cccnc1 | 0.251 µM [rising, partial curve] | 25.1 µM [rising, single point]
COc1cccc(CC(=O)Nc2ccc3nc(Nc4cccc(C(F)(F)F)c4)cc(C)c3c2)c1 | 0.02 µM [falling, full curve] | 0.0282 µM [falling, full curve, poor fit]
COc1ccc(CC(=O)c2ccc(OC)c(OC)c2C)cc1OC | 7.08 µM [rising, partial curve] | 6.31 µM [rising, partial curve]
